Changes are numbered by the printed parent chain. Names may count otherwise. These are yes or no findings as the source states them, for the method shown. In cells and extracts the contact can be indirect. Some results given as binding are weak or reduced against the parent protein; the word gives no strength. For some of these results: Sequences can lack the tags named with a protein.
T1: EGFP-VAMP8 (human), Q9BV40
T1 chain: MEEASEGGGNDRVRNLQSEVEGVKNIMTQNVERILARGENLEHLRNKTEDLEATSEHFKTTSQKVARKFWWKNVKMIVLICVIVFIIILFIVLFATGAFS

By UniProt entry, the sequences of proteins in these tests, tags left out. Where a name states a change or a piece, a line headed by the entry shows the natural chain unless it says otherwise.
UniProt O95721, whole entry: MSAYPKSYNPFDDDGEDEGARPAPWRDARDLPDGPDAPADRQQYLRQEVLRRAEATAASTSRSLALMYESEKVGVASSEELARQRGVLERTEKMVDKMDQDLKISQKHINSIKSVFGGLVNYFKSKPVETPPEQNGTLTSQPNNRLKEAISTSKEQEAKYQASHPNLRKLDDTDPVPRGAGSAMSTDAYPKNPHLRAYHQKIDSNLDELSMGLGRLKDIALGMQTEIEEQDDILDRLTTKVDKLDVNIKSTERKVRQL
UniProt Q6ZNE5, whole entry: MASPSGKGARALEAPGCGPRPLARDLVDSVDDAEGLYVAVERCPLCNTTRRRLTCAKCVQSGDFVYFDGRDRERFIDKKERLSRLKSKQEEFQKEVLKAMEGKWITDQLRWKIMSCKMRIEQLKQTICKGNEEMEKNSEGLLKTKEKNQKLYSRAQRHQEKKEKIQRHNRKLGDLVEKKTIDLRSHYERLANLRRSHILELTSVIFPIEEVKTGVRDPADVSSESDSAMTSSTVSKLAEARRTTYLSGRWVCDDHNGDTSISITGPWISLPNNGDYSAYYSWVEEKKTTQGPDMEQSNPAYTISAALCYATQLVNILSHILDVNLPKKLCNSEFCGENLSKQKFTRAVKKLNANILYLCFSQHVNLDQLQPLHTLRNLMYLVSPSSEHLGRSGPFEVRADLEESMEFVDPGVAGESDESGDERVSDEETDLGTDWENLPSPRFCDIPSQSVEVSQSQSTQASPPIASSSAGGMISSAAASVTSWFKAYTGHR

T2: EGFP-VAMP7, P51809
T2 chain: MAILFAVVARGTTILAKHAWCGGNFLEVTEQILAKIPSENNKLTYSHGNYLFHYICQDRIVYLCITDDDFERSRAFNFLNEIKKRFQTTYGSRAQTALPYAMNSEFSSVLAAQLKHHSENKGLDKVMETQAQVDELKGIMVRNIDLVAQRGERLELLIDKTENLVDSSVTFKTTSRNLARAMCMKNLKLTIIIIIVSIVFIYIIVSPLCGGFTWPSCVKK

B1: mCherry-Stx17 (syntaxin 17, wild type), P56962 1-302 (protein)
chain: MSEDEEKVKLRRLEPAIQKFIKIVIPTDLERLRKHQINIEKYQRCRIWDKLHEEHINAGRTVQQLRSNIREIEKLCLKVRKDDLVLLKRMIDPVKEEASAATAEFLQLHLESVEELKKQFNDEETLLQPPLTRSMTVGGAFHTTEAEASSQSLTQIYALPEIPQDQNAAESWETLEADLIELSQLVTDFSLLVNSQQEKIDSIADHVNSAAVNVEEGTKNLGKAAKYKLAALPVAGALIGGMVGGPIGLLAGFKVAGIAAALGGGVLGFTGGKLIQRKKQKMMEKLTSSCPDLPSQTDKKCS
B2: mCherry-Stx17[Q196G], P56962 1-302 (protein)
chain: B1 chain with Q196G

Experiments:
Assay in all cases: FRET or BRET
EGFP-SNAP29 = EGFP-SNAP29 (UniProt O95721)
EGFP-Atg14 = EGFP-Atg14 (UniProt Q6ZNE5)
EGFP-VAMP7 = EGFP-VAMP7 (UniProt P51809)
[1] = molecular target: T1, EGFP-VAMP8 (human), Q9BV40; details: remark: other sources report otherwise
EGFP-VAMP7, P51809 = molecular target: T2, EGFP-VAMP7, P51809; details: remark: other sources report otherwise

Molecule | binding (EGFP-SNAP29) | binding (EGFP-Atg14) | binding (EGFP-VAMP7) | binding [1] | binding (EGFP-VAMP7, P51809)
mCherry-Stx17[S2A] phosphonull mutant (from UniProt P56962 1-302) | binds | binds | binds | – | –
mCherry-Stx17[S2E] phosphomimetic mutant (from UniProt P56962 1-302) | – | binds | – | – | –
mCherry-Stx17 (syntaxin 17, wild type) (from UniProt P56962 1-302) | binds | binds | binds | – | –
mCherry-Stx17[ED3-6K] charge mutant (from UniProt P56962 1-302) | binds | binds | binds | – | –
mCherry-Stx17[Q196G] (from UniProt P56962 1-302) | no binding | – | – | – | –
B1 | – | – | – | no binding | –
B2 | – | – | – | – | no binding
